Results from article PMC6484116, “The NifZ accessory protein has an equivalent function in maturation of both nitrogenase MoFe protein P-clusters” (The Journal of Biological Chemistry, 2019).
These are yes or no findings as the source states them, for the method shown. Some entries that bind do so weakly or less than the wild type. Where a sequence is shown, tags or fusion partners need not be part of it.

T1: NifW^Str (Strep-tagged NifW) (UniProt P14888)
T1 sequence: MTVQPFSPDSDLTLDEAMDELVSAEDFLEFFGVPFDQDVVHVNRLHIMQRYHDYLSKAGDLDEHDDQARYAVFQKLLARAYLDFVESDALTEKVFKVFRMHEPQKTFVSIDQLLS

T2: MoFe protein^StrΔZ (Strep-tagged nitrogenase MoFe protein produced in a nifZ-deletion strain) (Azotobacter vinelandii) (UniProt P07328+P07329)
T2 sequence 1: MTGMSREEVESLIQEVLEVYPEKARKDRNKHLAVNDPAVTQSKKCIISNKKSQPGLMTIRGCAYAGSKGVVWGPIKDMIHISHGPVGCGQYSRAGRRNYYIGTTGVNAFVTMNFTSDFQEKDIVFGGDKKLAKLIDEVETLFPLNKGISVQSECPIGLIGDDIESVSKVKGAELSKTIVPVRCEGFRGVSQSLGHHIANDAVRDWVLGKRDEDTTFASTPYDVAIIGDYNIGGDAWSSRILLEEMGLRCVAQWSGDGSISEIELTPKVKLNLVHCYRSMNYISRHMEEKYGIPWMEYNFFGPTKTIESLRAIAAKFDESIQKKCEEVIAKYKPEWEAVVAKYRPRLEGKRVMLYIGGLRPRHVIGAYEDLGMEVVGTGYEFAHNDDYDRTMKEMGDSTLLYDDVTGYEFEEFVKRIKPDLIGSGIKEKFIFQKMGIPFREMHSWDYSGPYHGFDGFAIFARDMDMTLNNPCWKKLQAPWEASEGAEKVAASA
T2 sequence 2: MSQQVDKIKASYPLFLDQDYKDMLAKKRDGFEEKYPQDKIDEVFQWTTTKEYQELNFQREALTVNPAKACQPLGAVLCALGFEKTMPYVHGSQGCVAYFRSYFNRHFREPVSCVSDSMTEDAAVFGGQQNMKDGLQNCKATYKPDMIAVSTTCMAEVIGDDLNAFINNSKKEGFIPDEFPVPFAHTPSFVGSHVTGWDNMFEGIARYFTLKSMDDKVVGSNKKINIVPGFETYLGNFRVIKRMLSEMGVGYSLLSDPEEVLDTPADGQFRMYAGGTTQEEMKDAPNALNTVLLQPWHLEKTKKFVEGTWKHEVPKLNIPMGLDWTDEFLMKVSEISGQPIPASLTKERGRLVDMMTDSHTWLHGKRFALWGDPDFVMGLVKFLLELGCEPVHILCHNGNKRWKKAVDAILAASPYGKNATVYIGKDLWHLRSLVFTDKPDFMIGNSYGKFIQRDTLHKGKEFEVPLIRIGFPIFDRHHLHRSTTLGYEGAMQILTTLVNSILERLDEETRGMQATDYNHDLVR


Tests used:
[1] = target: T1, NifW^Str (Strep-tagged NifW); assay: pull-down; Strep-Tactin column charged with NifW^Str; fraction 1 of IMAC- and anion-exchange-purified MoFe protein^HisΔZ (cells derepressed 12 h) passed over it; bound material eluted with biotin; SDS-PAGE; both purified
[2] = target: T1, NifW^Str (Strep-tagged NifW); assay: condition: only the population of MoFe protein^HisΔZ without immature P-clusters (mature P-clusters and FeMo-cofactor; fraction 1a); pull-down; Strep-Tactin column charged with NifW^Str; fraction 1 of IMAC- and anion-exchange-purified MoFe protein^HisΔZ (cells derepressed 12 h) passed over it; bound material eluted with biotin; SDS-PAGE; both purified
[3] = target: T2, MoFe protein^StrΔZ (Strep-tagged nitrogenase MoFe protein produced in a nifZ-deletion strain) (Azotobacter vinelandii); assay: shift of the elution profile in anion-exchange chromatography; 32-fold excess of isolated NifW^Str added to STAC-purified MoFe protein^StrΔZ (cells derepressed 4 h) before anion-exchange chromatography; compared with the same sample without added NifW; both purified

| binding [1] | binding [2] | binding [3] | Binder |
| --- | --- | --- | --- |
| binds | no binding |  | MoFe protein^HisΔZ (His-tagged nitrogenase MoFe protein produced in a nifZ-deletion strain) (complex, UniProt P07328 1-492; P07329 1-523) chain 1: MTGMSREEVESLIQEVLEVYPEKARKDRNKHLAVNDPAVTQSKKCIISNKKSQPGLMTIRGCAYAGSKGVVWGPIKDMIHISHGPVGCGQYSRAGRRNYYIGTTGVNAFVTMNFTSDFQEKDIVFGGDKKLAKLIDEVETLFPLNKGISVQSECPIGLIGDDIESVSKVKGAELSKTIVPVRCEGFRGVSQSLGHHIANDAVRDWVLGKRDEDTTFASTPYDVAIIGDYNIGGDAWSSRILLEEMGLRCVAQWSGDGSISEIELTPKVKLNLVHCYRSMNYISRHMEEKYGIPWMEYNFFGPTKTIESLRAIAAKFDESIQKKCEEVIAKYKPEWEAVVAKYRPRLEGKRVMLYIGGLRPRHVIGAYEDLGMEVVGTGYEFAHNDDYDRTMKEMGDSTLLYDDVTGYEFEEFVKRIKPDLIGSGIKEKFIFQKMGIPFREMHSWDYSGPYHGFDGFAIFARDMDMTLNNPCWKKLQAPWEASEGAEKVAASA chain 2: MSQQVDKIKASYPLFLDQDYKDMLAKKRDGFEEKYPQDKIDEVFQWTTTKEYQELNFQREALTVNPAKACQPLGAVLCALGFEKTMPYVHGSQGCVAYFRSYFNRHFREPVSCVSDSMTEDAAVFGGQQNMKDGLQNCKATYKPDMIAVSTTCMAEVIGDDLNAFINNSKKEGFIPDEFPVPFAHTPSFVGSHVTGWDNMFEGIARYFTLKSMDDKVVGSNKKINIVPGFETYLGNFRVIKRMLSEMGVGYSLLSDPEEVLDTPADGQFRMYAGGTTQEEMKDAPNALNTVLLQPWHLEKTKKFVEGTWKHEVPKLNIPMGLDWTDEFLMKVSEISGQPIPASLTKERGRLVDMMTDSHTWLHGKRFALWGDPDFVMGLVKFLLELGCEPVHILCHNGNKRWKKAVDAILAASPYGKNATVYIGKDLWHLRSLVFTDKPDFMIGNSYGKFIQRDTLHKGKEFEVPLIRIGFPIFDRHHLHRSTTLGYEGAMQILTTLVNSILERLDEETRGMQATDYNHDLVR |
|  |  | binds | NifW (accessory protein, endogenous) (natural protein, UniProt P14888 1-115, looked up, NifW, Azotobacter vinelandii; also called NifW assembly factor; source: endogenous, A. vinelandii DJ1182 or DJ2111 cell extract; co-purified with MoFe protein) MTVQPFSPDSDLTLDEAMDELVSAEDFLEFFGVPFDQDVVHVNRLHIMQRYHDYLSKAGDLDEHDDQARYAVFQKLLARAYLDFVESDALTEKVFKVFRMHEPQKTFVSIDQLLS |
